## Library screen at single concentrations

Protein sequences, listed by entry. Tags and fused reporters are not part of them. Residues count along the entry.
UniProt I6X8D2, whole entry: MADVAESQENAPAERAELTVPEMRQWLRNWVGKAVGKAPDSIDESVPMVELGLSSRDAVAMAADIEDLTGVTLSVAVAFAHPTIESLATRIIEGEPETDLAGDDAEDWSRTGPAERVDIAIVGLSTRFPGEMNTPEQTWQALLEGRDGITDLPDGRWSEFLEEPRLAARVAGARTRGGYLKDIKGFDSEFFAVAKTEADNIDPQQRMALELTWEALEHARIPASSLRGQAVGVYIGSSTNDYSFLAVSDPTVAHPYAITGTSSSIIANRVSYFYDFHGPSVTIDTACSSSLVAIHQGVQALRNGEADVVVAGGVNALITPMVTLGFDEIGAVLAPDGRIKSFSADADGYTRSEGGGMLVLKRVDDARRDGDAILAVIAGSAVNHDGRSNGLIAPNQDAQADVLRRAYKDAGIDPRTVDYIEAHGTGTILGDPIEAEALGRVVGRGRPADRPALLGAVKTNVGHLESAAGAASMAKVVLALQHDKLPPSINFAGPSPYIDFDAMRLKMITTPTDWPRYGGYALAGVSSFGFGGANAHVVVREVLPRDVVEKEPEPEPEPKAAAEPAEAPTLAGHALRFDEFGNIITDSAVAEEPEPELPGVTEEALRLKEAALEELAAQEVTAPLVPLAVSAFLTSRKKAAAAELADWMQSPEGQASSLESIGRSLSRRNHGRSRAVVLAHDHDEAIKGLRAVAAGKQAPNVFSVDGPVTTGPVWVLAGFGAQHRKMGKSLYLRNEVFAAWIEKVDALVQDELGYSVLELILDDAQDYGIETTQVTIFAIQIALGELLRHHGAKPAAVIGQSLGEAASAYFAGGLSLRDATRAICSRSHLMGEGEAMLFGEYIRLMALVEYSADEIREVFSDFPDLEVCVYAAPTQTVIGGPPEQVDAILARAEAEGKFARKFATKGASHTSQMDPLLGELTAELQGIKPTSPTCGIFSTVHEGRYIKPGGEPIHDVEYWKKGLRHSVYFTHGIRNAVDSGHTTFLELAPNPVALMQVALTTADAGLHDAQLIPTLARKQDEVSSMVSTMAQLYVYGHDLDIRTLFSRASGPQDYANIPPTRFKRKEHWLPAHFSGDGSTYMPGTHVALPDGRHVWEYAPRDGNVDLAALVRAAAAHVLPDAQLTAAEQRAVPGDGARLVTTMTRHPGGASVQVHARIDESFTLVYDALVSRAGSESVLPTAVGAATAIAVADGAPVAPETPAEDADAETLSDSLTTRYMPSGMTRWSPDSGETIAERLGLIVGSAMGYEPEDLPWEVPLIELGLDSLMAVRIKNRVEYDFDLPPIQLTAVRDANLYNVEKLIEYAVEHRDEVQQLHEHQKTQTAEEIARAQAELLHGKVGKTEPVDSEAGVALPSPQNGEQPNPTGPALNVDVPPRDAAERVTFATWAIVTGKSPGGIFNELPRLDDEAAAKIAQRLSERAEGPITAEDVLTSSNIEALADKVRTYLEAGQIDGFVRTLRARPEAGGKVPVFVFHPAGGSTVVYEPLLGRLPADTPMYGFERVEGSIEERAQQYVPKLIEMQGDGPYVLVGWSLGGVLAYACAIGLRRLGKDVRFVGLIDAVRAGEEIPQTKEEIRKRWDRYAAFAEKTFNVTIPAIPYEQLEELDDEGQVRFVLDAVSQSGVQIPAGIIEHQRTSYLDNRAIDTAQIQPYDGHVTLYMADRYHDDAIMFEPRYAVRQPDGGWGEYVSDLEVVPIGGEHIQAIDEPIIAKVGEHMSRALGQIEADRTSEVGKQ
UniProt Q4DA54, 1-478: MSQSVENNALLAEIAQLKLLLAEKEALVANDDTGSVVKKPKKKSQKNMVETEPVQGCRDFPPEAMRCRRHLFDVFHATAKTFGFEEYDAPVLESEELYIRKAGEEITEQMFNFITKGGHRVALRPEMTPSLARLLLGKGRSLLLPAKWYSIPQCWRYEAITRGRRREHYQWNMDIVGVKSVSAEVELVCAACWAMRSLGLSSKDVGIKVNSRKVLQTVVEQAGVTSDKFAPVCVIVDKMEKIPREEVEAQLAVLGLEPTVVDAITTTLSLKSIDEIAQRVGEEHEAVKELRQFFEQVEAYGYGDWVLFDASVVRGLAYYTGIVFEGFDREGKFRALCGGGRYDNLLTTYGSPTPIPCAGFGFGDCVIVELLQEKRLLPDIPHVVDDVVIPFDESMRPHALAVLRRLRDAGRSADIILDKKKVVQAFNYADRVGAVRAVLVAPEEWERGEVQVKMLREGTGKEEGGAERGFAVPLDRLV
UniProt A4I591, 1-473: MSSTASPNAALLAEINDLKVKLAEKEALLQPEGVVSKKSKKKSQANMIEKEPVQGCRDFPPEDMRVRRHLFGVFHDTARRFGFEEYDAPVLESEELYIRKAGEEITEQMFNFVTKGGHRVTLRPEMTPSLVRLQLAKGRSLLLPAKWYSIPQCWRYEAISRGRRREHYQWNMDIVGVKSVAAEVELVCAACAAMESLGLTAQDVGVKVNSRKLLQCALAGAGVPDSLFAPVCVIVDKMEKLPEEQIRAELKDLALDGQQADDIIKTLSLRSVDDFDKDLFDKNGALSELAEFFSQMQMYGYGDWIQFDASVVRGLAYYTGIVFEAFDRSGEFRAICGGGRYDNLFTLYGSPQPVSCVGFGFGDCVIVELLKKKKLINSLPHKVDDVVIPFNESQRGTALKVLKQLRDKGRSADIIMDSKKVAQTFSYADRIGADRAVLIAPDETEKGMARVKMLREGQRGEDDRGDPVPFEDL

Measurements from “University of Dundee, Small-Polar-MMV Screening Library” (2021), ChEMBL document CHEMBL3988442.

Pks13 thioesterase: 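Enzyme assay of the thioesterase domain of polyketide synthase 13; the read-out is not stated. Target: Polyketide synthase Pks13, Mycobacterium tuberculosis (UniProt I6X8D2). Tested at 30 µM. The record gives no direction; the compounds picked for IC50 retests had high values, so higher reads as stronger inhibition. Of about 67,000 compounds tested this way, about 300 (0.46%) reached 50% or more in at least one test.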
TcHisRS: 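Enzyme assay of histidyl-tRNA synthetase; the read-out is not stated. Target: Histidine-tRNA ligase, Trypanosoma cruzi CL Brener (UniProt Q4DA54). Concentration: 30 µM. Direction is inferred from retests: higher values go with stronger inhibition. About 69,000 compounds were tested under these conditions; 0.045% (about 31) showed 50% or more at least once.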
LiHisRS: 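Enzyme assay of histidyl-tRNA synthetase; the read-out is not stated. Target: Histidine-tRNA ligase, Leishmania infantum (UniProt A4I591). Tested at 30 µM. Direction is inferred from retests: higher values go with stronger inhibition. The assay is labelled LdHisRS but filed under L. infantum. Of about 69,000 compounds tested this way, about 410 (0.6%) reached 50% or more in at least one test.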

Each number is a percent effect as filed.
How 0% and 100% were set is not recorded. Most values in the screen are low, and negative values occur.
The compounds are a random part of those screened.
A dash means the value is not listed here; it may have been measured.

Compound,Pks13 thioesterase,TcHisRS,LiHisRS
CN(C)c1ccc(NC(=O)N2CCc3sccc3C2)cn1,-3.591%,4.348%,15.15%
Cn1cnc2c1CCN(Cc1c(Cl)ccc3cccnc13)C2,-26.34%,3.867%,13.54%
O=C(Nc1ccc(CCN2CCC(O)CC2)cc1)C1CCCCC1,-7.835%,1.458%,7.339%
CCOC(=O)N1CCC2(CC1)N=C(CCC(C)C)NC2=O,-38.42%,-1.064%,3.125%
Cc1cc(CN2CCN3C[C@H](c4ccccc4)[C@@H](CO)[C@H]3C2)on1,0.2995%,8.989%,2.041%
CC(NS(C)(=O)=O)C(=O)N(C)Cc1csc(-c2ccccc2)n1 (centres undefined),-9.66%,8.434%,12%
CCC1CCCCN1S(=O)(=O)c1c(C)noc1C (centres undefined),-23.95%,2.041%,5.714%
COCCN(Cc1cnn(C)c1)C(=O)C1COc2c(cccc2OC)C1 (centres undefined),-,10.59%,19.84%
O=C(COc1ccccc1F)NCCC(O)c1ccoc1 (centres undefined),-14.42%,-1.212%,18.18%
F[C@@H]1CN(Cc2ccccc2)C[C@@H]1OCc1nc2cnccc2[nH]1,15.72%,3.483%,-13.51%
CCCN1CCCn2nc(CNC(=O)CC3CCS(=O)(=O)C3)cc2C1 (centres undefined),-45.06%,4.865%,15.38%
Cc1cccc(C(=O)N2CCCC(c3noc(C)n3)C2)n1 (centres undefined),-9.729%,2.882%,12.5%
CCOc1cc(NC(=O)NCCn2cnnc2CC)ccc1C,-12.06%,-0.8403%,12.28%
Cc1ccc(CC(=O)N2CCCN(Cc3nccn3C)CC2)cn1,-13.56%,4.274%,11.97%
O=C1NCCN(Cc2ccccc2)C1CC(=O)N1CCc2n[nH]cc2C1 (centres undefined),-18.87%,7.407%,13.73%
CC(=O)NC[C@H]1COCc2nc3cc(S(C)(=O)=O)ccc3n21,-19.87%,7.609%,20.27%
CC(C)(C)OCC1CN(CC2CC2)S(=O)(=O)c2cnccc2O1 (centres undefined),9.402%,2.312%,18.56%
CCC1=N[C@@]2(CC[C@@H]3CN(CC(C)C)C[C@@H]32)C(=O)N1,2.09%,4.813%,11.11%
CC(C)Oc1ccc(C(=O)N2CCCC2c2cnn(C)c2)cn1 (centres undefined),-1.58%,2.312%,0.8929%
Cc1cnc(CNC(=O)N(CCCO)C2CCc3ccccc32)s1 (centres undefined),-17.2%,2.305%,5.357%
Cc1cn2c(CN(C)C(=O)c3nccnc3N)c(C)nc2s1,1.319%,4.865%,5.479%
CC(C)CC(=O)N1CCc2nc(N3CCOCC3)nc(NC(C)C)c2C1,-20.9%,4.918%,10.95%
O=S(=O)(c1cccs1)N1CC[C@H](O)[C@@H]1Cc1ccncc1,-21.95%,4.972%,15.04%
O=C1NC2(CCCN(C(=O)CCn3cccn3)C2)Oc2ccccc21 (centres undefined),-1.371%,7.576%,11.59%
c1ncn(CC2CN(CC3CCCC3)CCO2)n1 (centres undefined),-7.275%,2.632%,13.51%
CN(c1ccc(Cl)c(C(=O)NCCCN2CCOCC2)c1)S(C)(=O)=O,-8.979%,-4.036%,1.176%
Cc1nc(C(=O)Nc2cccnc2)c(C(C)C)s1,-25.42%,11.34%,23.08%
CCNC(=O)N1CCC(NC(=O)NCCc2cc3ccccc3o2)C1 (centres undefined),-13.37%,8.671%,19.15%
Cc1nc(-c2ccsc2)ccc1C(=O)N(C)CC(F)(F)F,-9.279%,0.4464%,18.52%
Cn1cc([C@@H]2CN(S(=O)(=O)c3cccs3)C[C@H]2N)c2ccncc21,2.89%,11.36%,14.49%
CCCc1nn(C2CCN(C3CC3)C2=O)c(=O)o1 (centres undefined),-24.05%,0%,-27.4%
Cc1cc(C)n(CC2CN(CCOc3cccc(F)c3)CCO2)n1 (centres undefined),-13.33%,1.515%,22.73%
CCc1ccsc1C(=O)N1CCS(=O)(=O)CC1,-28.41%,1.111%,11.11%
CCn1c(=O)n(CCC(=O)N(C)Cc2ccc(C)o2)c2ccccc21,-7.701%,0.8772%,16.07%
CS(=O)(=O)c1cccc(OCC(=O)N2CCCC2c2ccccc2Cl)c1 (centres undefined),0.5531%,0.4808%,7.317%
O=c1cc2c(nn1CN1CCN(c3ccc(F)cc3)CC1)CCC2,-9.886%,3.614%,2.564%
COc1ccnc(C(=O)N2CCCC(c3noc(C)n3)C2)c1 (centres undefined),-20.01%,0.7519%,-21.35%
O=C(CCC1CCCO1)NCc1ccnc(-n2cccn2)c1 (centres undefined),-7.421%,2.273%,4.545%
Cn1cc(CN2CCOC(Cc3cccc(F)c3)C2)cn1 (centres undefined),-17.21%,-4.464%,8.85%
Cc1cc(C(F)(F)F)nc(C2CCN(C(=O)CO)CC2)n1,-2.906%,0.3831%,10.07%
COCC(Nc1ncnc2sc(C)c(C)c12)c1ccnn1C (centres undefined),-11.77%,4.762%,15.56%
O=C1CC2(CCN(Cc3ccc(-c4ccccc4)s3)C2)C(=O)N1 (centres undefined),2.417%,3.478%,11.67%
Cc1cnc(N2CCC3(CC2)CC(NC(=O)C(C)C)CO3)nc1 (centres undefined),-4.367%,-4.598%,26.32%
CC(C)NC(=O)Nc1ccc2c(c1)ncn2CC(=O)NCCN(C)C,-3.386%,3.96%,18.68%
Fc1ccc(CN2CC[C@H]3O[C@@H](COCC4CCOCC4)CC[C@H]32)cc1,-15.78%,3.825%,2.19%
Cc1nc(C2CCCN2Cc2nc(C3CC3)no2)no1 (centres undefined),-11.71%,7.289%,18.35%
CN(Cc1ccc(F)cc1F)CC(C)(CO)CO,-39.22%,-4.046%,-1.333%
Cc1cccc(C(=O)N2CCC(Cc3cnc4[nH]ccc4c3)CC2)n1,-14.15%,2.151%,11.43%
CCOCC(=O)NC1(c2cccc(Cl)c2)CC1,-2.1%,6.897%,1.37%
Cc1cc(C)nc(C2CCCNC2)n1 (centres undefined),-5.973%,4.135%,1.418%